PubChem BioAssay AID1224830 – NIAID, 2016
The deposit covers about 18,000 reagents; shown is a part drawn at random. About 2,900 of all reagents (16%) were called active. 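Calls are made per well; low scores hint the gene aids the LPS response, high scores that it dampens it.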 Repeated entries: four replicate wells of each siRNA pool.

- Screen: 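Genes whose knock-down alters the TNF-alpha reporter response to LPS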 (primary screen)
- Cell system: human THP-1 monocytic leukaemia cells, TNF dual-luciferase reporter clone, PMA-differentiated to macrophage-like cells
- Reagent: siRNA pool against human genes, 50 nM
- Duration: LPS for 4 h, given about 3 days after siRNA transfection
- Challenge: bacterial LPS (TLR4 ligand), 10 ng/ml
- Measurement: 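TNF firefly reporter luminescence divided by renilla, normalised to the plate median, then turned into a robust z-score for each replicate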
- Direction: TNF reporter robust z-score: higher = stronger TNF reporter response to LPS
- Rule for the call: 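a well is active when its z-score exceeds 2.8 or falls below -1.5; control wells carry no call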

| Target gene | TNF reporter robust z-score | outcome |
| --- | --- | --- |
| KIF1C (kinesin family member 1C) | 0.81 | inactive |
| KIF1C (kinesin family member 1C) | -0.28 | inactive |
| KIF1C (kinesin family member 1C) | 0.61 | inactive |
| KIF1C (kinesin family member 1C) | 1.39 | inactive |
| TIGIT (T cell immunoreceptor with Ig and ITIM domains) | -0.96 | inactive |
| TIGIT (T cell immunoreceptor with Ig and ITIM domains) | 0.6 | inactive |
| TIGIT (T cell immunoreceptor with Ig and ITIM domains) | 0.46 | inactive |
| TIGIT (T cell immunoreceptor with Ig and ITIM domains) | 0.27 | inactive |
| COLEC11 (collectin subfamily member 11) | 0.42 | inactive |
| COLEC11 (collectin subfamily member 11) | 0.65 | inactive |
| COLEC11 (collectin subfamily member 11) | 0.34 | inactive |
| COLEC11 (collectin subfamily member 11) | 0.17 | inactive |
| OR4K1 (olfactory receptor family 4 subfamily K member 1) | 0.51 | inactive |
| OR4K1 (olfactory receptor family 4 subfamily K member 1) | -0.09 | inactive |
| OR4K1 (olfactory receptor family 4 subfamily K member 1) | 2.07 | inactive |
| OR4K1 (olfactory receptor family 4 subfamily K member 1) | 0.1 | inactive |
| ELAVL2 (ELAV like RNA binding protein 2) | -0.23 | inactive |
| ELAVL2 (ELAV like RNA binding protein 2) | 0.63 | inactive |
| ELAVL2 (ELAV like RNA binding protein 2) | 3.35 | active |
| ELAVL2 (ELAV like RNA binding protein 2) | 0.94 | inactive |
| RORA (RAR related orphan receptor A) | -1.41 | inactive |
| RORA (RAR related orphan receptor A) | -0.61 | inactive |
| RORA (RAR related orphan receptor A) | -0.75 | inactive |
| RORA (RAR related orphan receptor A) | -0.2 | inactive |
| IP6K2 (inositol hexakisphosphate kinase 2) | 1.11 | inactive |
| IP6K2 (inositol hexakisphosphate kinase 2) | 2.68 | inactive |
| IP6K2 (inositol hexakisphosphate kinase 2) | 0.85 | inactive |
| IP6K2 (inositol hexakisphosphate kinase 2) | 4.18 | active |
| BARHL1 (BarH like homeobox 1) | 0.19 | inactive |
| BARHL1 (BarH like homeobox 1) | -0.85 | inactive |
| BARHL1 (BarH like homeobox 1) | -0.28 | inactive |
| BARHL1 (BarH like homeobox 1) | -0.64 | inactive |
| LOC402715 (karyopherin subunit alpha 2 pseudogene) | 4.21 | active |
| LOC402715 (karyopherin subunit alpha 2 pseudogene) | 1.12 | inactive |
| LOC402715 (karyopherin subunit alpha 2 pseudogene) | 1.55 | inactive |
| LOC402715 (karyopherin subunit alpha 2 pseudogene) | 1.32 | inactive |
| PKHD1 (PKHD1 ciliary IPT domain containing fibrocystin/polyductin) | 0.4 | inactive |
| PKHD1 (PKHD1 ciliary IPT domain containing fibrocystin/polyductin) | -0.12 | inactive |
| PKHD1 (PKHD1 ciliary IPT domain containing fibrocystin/polyductin) | -0.51 | inactive |
| PKHD1 (PKHD1 ciliary IPT domain containing fibrocystin/polyductin) | 0.15 | inactive |
| MAGOH (mago homolog, exon junction complex subunit) | -0.06 | inactive |
| MAGOH (mago homolog, exon junction complex subunit) | -0.45 | inactive |
| MAGOH (mago homolog, exon junction complex subunit) | -0.17 | inactive |
| MAGOH (mago homolog, exon junction complex subunit) | -0.09 | inactive |
| NUDT12 (nudix hydrolase 12) | -0.65 | inactive |
| NUDT12 (nudix hydrolase 12) | -0.46 | inactive |
| NUDT12 (nudix hydrolase 12) | -1.41 | inactive |
| NUDT12 (nudix hydrolase 12) | -0.39 | inactive |
| HMGN3 (high mobility group nucleosomal binding domain 3) | -1.03 | inactive |
| HMGN3 (high mobility group nucleosomal binding domain 3) | -0.02 | inactive |
| HMGN3 (high mobility group nucleosomal binding domain 3) | -0.2 | inactive |
| HMGN3 (high mobility group nucleosomal binding domain 3) | -0.7 | inactive |
| ZBTB43 (zinc finger and BTB domain containing 43) | 0.27 | inactive |
| ZBTB43 (zinc finger and BTB domain containing 43) | 2.04 | inactive |
| ZBTB43 (zinc finger and BTB domain containing 43) | 1.08 | inactive |
| ZBTB43 (zinc finger and BTB domain containing 43) | 1.14 | inactive |
| ALDH4A1 (aldehyde dehydrogenase 4 family member A1) | 0.21 | inactive |
| ALDH4A1 (aldehyde dehydrogenase 4 family member A1) | 0.05 | inactive |
| ALDH4A1 (aldehyde dehydrogenase 4 family member A1) | 0.86 | inactive |
| SCUBE3 (signal peptide, CUB domain and EGF like domain containing 3) | 0.09 | inactive |
| SCUBE3 (signal peptide, CUB domain and EGF like domain containing 3) | 1.43 | inactive |
| SCUBE3 (signal peptide, CUB domain and EGF like domain containing 3) | -0.15 | inactive |
| SCUBE3 (signal peptide, CUB domain and EGF like domain containing 3) | 0.95 | inactive |
| COL4A5 (collagen type IV alpha 5 chain) | -1.41 | inactive |
| COL4A5 (collagen type IV alpha 5 chain) | -0.75 | inactive |
| COL4A5 (collagen type IV alpha 5 chain) | 0.86 | inactive |
| COL4A5 (collagen type IV alpha 5 chain) | 1.44 | inactive |
| SNX3 (sorting nexin 3) | 0.38 | inactive |
| SNX3 (sorting nexin 3) | 1.42 | inactive |
| SNX3 (sorting nexin 3) | -1 | inactive |
| SNX3 (sorting nexin 3) | -0.65 | inactive |

Called active, of those listed so far:
| Target gene | TNF reporter robust z-score | outcome |
| --- | --- | --- |
| ELAVL2 (ELAV like RNA binding protein 2) | 3.35 | active |
| IP6K2 (inositol hexakisphosphate kinase 2) | 4.18 | active |
| LOC402715 (karyopherin subunit alpha 2 pseudogene) | 4.21 | active |

Additional results follow:
| Target gene | TNF reporter robust z-score | outcome |
| --- | --- | --- |
| CLCN7 (Cl-/H+ antiporter 7) | 0.51 | inactive |
| CLCN7 (Cl-/H+ antiporter 7) | 0.18 | inactive |
| CLCN7 (Cl-/H+ antiporter 7) | 0.13 | inactive |
| TMC8 (transmembrane channel like 8) | -0.57 | inactive |
| TMC8 (transmembrane channel like 8) | -0.52 | inactive |
| TMC8 (transmembrane channel like 8) | -0.9 | inactive |
| TMC8 (transmembrane channel like 8) | -0.23 | inactive |
| QRFP (pyroglutamylated RFamide peptide) | -0.66 | inactive |
| QRFP (pyroglutamylated RFamide peptide) | -0.24 | inactive |
| QRFP (pyroglutamylated RFamide peptide) | -0.83 | inactive |
| QRFP (pyroglutamylated RFamide peptide) | 1.26 | inactive |
| PDIA3 (protein disulfide isomerase family A member 3) | -0.83 | inactive |
| PDIA3 (protein disulfide isomerase family A member 3) | -1.26 | inactive |
| PDIA3 (protein disulfide isomerase family A member 3) | -0.67 | inactive |
| PDIA3 (protein disulfide isomerase family A member 3) | -0.71 | inactive |
| MUC17 (mucin 17, cell surface associated) | -0.02 | inactive |
| MUC17 (mucin 17, cell surface associated) | 0 | inactive |
| MUC17 (mucin 17, cell surface associated) | -0.15 | inactive |
| MUC17 (mucin 17, cell surface associated) | -0.56 | inactive |
| CKB (creatine kinase B) | -0.75 | inactive |
| CKB (creatine kinase B) | 0.08 | inactive |
| CKB (creatine kinase B) | -1.2 | inactive |
| CKB (creatine kinase B) | -0.43 | inactive |
| NOSTRIN (nitric oxide synthase trafficking) | 0.05 | inactive |
| NOSTRIN (nitric oxide synthase trafficking) | 1.03 | inactive |
| NOSTRIN (nitric oxide synthase trafficking) | 0.46 | inactive |
| NOSTRIN (nitric oxide synthase trafficking) | 2.19 | inactive |
| ZNF490 (zinc finger protein 490) | 0.14 | inactive |
| ZNF490 (zinc finger protein 490) | 0.01 | inactive |
| ZNF490 (zinc finger protein 490) | 0.09 | inactive |
| ZNF490 (zinc finger protein 490) | -0.73 | inactive |
| MCTP2 (multiple C2 and transmembrane domain containing 2) | -0.64 | inactive |
| MCTP2 (multiple C2 and transmembrane domain containing 2) | 1.03 | inactive |
| MCTP2 (multiple C2 and transmembrane domain containing 2) | -0.1 | inactive |
| MCTP2 (multiple C2 and transmembrane domain containing 2) | 1.48 | inactive |
| MAGI1 | -0.56 | inactive |
| MAGI1 | -1.05 | inactive |
| MAGI1 | -0.75 | inactive |
| MAGI1 | -0.26 | inactive |
